Patent publication US7220778B2, “Methods and devices for epithelial protection during photodynamic therapy” (The General Hospital Corporation, priority 2003, dated 2007)
At least one structure is not confirmed: it was looked up by name or label, or the drawing left a doubt.

Tested on: human skin
Experiment: ALA-induced photodynamic therapy of human skin under reduced oxygen (635-nm diode laser irradiation)
Assay type: in vivo
Conditions: ALA iontophoretically transferred into human skin, 3 hours incubation

For `NCC(=O)CCC(=O)O` [ALA, aminolevulinic acid], the “hair removal after ALA-PDT with decreased oxygen in the skin” value (external vacuum applied to skin, compared to control (c), FIG. 2B) was “effective to remove hair” and the “hair removal after ALA-PDT with decreased oxygen in the skin” value (tourniquet applied to the extremity for 1 minute prior to and during irradiation, compared to control (a), FIG. 2A) was “effective to remove hair”.
